Measured values from the supplement of paper PMC10849652.
Some of the results follow.

The chains behind the UniProt entries cited, without tags or fusion partners. Where a name states a change or a piece, a line headed by the entry shows the natural chain unless it says otherwise.
UniProt P58557: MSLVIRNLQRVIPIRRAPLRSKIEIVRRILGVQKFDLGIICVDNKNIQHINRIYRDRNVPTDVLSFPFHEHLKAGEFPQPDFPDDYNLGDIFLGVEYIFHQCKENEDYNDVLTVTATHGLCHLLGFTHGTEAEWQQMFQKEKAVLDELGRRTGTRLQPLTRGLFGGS
UniProt Q9Y397: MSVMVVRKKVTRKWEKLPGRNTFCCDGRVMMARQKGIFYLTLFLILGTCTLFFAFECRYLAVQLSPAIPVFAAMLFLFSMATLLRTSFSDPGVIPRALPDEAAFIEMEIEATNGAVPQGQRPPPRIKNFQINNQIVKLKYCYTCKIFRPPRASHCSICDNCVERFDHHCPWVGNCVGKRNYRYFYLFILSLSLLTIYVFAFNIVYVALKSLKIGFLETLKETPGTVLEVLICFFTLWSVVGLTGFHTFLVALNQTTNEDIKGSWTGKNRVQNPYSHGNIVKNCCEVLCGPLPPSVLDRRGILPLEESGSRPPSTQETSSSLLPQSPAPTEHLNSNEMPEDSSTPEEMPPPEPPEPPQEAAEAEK
UniProt Q5TC79: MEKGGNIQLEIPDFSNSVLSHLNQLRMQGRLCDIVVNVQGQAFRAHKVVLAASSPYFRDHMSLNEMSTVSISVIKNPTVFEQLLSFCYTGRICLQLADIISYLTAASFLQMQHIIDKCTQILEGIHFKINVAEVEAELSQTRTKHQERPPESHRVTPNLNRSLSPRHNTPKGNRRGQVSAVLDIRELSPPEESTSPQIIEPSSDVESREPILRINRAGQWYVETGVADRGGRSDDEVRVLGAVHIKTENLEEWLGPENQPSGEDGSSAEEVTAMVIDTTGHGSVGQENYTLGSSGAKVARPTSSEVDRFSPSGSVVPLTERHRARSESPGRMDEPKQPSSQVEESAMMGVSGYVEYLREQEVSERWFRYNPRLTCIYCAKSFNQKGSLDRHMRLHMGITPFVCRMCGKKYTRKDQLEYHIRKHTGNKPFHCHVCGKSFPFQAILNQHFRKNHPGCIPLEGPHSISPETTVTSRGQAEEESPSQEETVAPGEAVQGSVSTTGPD
UniProt P10074: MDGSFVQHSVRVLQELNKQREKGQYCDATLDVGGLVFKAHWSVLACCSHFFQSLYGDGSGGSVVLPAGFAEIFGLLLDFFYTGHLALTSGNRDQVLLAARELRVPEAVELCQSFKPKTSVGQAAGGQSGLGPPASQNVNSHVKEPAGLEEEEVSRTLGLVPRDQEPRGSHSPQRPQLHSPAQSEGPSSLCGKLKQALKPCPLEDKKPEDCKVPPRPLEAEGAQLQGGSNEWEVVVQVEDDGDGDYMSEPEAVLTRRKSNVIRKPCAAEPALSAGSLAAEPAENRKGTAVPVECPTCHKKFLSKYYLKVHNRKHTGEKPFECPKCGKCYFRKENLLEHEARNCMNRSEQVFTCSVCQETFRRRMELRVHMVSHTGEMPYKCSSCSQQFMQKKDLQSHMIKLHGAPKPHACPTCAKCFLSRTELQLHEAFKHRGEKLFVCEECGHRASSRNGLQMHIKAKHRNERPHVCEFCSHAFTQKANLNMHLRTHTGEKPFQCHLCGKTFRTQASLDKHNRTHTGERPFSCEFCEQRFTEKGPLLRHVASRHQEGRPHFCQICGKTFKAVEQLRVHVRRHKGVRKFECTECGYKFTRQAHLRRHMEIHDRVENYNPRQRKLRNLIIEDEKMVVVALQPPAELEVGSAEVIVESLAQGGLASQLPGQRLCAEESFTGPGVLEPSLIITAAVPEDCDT
UniProt Q9H8U3: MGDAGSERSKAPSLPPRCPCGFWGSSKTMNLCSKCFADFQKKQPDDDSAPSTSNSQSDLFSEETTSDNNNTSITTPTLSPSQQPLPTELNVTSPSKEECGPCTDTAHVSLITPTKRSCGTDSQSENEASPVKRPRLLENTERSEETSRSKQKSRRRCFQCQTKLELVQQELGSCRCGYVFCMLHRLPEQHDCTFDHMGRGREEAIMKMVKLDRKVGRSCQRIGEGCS
UniProt Q8NCP5: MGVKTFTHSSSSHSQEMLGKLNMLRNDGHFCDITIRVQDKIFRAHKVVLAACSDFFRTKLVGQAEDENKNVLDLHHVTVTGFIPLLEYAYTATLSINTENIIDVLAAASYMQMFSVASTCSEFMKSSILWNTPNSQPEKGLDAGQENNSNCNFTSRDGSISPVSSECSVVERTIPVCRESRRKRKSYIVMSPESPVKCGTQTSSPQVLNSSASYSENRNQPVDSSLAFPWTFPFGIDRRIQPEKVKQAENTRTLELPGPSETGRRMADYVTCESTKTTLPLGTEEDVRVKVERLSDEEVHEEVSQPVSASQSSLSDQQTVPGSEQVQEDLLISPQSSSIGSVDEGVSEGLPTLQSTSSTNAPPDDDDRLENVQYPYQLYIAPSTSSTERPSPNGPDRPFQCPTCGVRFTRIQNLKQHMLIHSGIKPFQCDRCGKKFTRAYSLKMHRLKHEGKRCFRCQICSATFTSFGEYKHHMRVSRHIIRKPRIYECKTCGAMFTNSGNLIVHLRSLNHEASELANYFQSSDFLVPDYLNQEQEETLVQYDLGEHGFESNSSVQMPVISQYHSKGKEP
UniProt Q49AG3: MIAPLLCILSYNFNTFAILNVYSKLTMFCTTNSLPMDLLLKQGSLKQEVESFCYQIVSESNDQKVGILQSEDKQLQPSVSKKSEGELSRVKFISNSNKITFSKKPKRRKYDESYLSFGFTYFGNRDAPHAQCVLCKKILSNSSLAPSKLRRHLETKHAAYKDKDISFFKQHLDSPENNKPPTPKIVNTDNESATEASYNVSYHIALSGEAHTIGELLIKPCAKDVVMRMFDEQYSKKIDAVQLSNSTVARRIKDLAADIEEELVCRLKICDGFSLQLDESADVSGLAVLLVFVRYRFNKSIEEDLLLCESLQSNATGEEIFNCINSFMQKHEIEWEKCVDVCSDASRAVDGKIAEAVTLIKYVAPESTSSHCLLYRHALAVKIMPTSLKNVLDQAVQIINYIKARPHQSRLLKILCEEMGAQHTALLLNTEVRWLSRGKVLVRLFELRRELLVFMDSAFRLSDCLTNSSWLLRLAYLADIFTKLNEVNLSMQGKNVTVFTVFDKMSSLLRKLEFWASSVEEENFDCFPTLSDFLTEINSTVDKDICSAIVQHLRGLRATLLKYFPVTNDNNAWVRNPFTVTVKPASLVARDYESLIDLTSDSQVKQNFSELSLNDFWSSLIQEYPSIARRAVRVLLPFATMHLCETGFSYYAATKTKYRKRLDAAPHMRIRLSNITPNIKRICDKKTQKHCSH
UniProt Q9C0D7: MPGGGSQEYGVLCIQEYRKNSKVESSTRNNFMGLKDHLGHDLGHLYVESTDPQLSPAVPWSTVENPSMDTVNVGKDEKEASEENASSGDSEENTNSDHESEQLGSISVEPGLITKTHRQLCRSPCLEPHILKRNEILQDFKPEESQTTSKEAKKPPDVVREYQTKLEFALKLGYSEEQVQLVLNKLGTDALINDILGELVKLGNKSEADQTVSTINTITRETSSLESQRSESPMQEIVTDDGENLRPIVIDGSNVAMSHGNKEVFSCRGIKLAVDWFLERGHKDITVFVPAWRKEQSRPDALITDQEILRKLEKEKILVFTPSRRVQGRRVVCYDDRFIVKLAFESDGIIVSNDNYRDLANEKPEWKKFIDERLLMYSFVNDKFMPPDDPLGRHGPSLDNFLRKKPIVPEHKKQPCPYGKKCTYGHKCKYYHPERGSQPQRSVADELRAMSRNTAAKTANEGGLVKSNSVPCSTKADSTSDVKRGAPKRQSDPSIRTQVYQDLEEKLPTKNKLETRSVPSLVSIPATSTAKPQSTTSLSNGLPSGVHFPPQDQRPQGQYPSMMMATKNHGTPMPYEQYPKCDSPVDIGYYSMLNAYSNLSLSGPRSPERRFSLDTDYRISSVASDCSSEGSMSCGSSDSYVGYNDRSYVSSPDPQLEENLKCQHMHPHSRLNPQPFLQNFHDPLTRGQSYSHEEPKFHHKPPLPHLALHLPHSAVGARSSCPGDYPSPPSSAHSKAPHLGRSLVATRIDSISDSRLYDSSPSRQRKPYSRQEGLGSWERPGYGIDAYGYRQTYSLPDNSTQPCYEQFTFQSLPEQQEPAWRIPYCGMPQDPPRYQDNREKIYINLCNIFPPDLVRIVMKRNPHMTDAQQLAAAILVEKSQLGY
UniProt Q9BWQ6: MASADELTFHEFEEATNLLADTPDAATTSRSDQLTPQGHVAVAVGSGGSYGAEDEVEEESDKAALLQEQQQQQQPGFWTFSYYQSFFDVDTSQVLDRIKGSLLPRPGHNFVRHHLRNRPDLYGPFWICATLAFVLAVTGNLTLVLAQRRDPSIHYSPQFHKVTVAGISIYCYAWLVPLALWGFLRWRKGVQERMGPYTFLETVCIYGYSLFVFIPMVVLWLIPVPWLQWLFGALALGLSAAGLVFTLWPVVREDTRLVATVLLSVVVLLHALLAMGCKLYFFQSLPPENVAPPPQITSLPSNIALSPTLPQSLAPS
UniProt Q8NCN2: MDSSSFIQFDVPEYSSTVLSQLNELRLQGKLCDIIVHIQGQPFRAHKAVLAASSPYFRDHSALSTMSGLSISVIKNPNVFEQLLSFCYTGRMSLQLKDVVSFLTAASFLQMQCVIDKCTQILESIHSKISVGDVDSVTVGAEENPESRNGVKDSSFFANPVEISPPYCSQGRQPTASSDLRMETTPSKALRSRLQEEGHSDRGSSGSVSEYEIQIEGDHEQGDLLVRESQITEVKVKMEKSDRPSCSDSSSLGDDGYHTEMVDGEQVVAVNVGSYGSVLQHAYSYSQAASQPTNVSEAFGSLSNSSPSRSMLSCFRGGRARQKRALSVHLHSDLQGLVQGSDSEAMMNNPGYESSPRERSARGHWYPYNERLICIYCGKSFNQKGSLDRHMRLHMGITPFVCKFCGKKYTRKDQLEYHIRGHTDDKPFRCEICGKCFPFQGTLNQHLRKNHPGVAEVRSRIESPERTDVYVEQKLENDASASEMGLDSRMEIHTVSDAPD
UniProt Q9NTW7: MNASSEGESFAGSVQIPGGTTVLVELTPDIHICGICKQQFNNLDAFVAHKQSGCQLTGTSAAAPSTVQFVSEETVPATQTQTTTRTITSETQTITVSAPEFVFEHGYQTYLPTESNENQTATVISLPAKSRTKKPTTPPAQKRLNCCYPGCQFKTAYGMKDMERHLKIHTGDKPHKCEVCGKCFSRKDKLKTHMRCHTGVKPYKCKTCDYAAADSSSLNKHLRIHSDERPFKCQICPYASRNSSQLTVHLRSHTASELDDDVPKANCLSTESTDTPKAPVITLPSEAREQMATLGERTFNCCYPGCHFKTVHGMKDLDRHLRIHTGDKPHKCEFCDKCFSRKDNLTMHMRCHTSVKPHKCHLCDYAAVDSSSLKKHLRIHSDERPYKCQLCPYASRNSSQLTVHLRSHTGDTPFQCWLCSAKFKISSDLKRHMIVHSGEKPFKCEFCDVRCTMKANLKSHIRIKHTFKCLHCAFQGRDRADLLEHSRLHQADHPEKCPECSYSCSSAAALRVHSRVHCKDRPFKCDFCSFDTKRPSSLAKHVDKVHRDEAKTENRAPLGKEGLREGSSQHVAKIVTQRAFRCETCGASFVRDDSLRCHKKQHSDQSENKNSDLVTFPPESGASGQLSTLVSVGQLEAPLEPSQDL
UniProt Q9NQZ6: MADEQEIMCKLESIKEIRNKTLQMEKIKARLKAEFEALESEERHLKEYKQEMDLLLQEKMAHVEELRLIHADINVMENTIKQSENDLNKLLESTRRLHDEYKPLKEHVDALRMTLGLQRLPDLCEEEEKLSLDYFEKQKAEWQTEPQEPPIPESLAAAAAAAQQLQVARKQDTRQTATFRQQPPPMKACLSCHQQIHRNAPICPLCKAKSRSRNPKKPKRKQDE
UniProt Q96GR4: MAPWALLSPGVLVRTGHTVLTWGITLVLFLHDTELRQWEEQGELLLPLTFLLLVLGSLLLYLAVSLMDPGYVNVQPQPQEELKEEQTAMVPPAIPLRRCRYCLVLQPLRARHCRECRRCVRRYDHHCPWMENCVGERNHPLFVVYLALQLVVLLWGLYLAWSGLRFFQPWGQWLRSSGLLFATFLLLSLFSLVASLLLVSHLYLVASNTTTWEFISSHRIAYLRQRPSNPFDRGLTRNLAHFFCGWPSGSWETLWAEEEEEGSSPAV

Key:
Assay in all cases: log2 fold change, soluble protein after heating vs DMSO (PISA); higher = thermal stabilisation; K562 lysate, 10 uM; active = over 0.2 and 3.5 SD of the protein, either way, in both replicates (recomputed)
dasatinib = compound: Cc1nc(Nc2ncc(C(=O)Nc3c(C)cccc3Cl)s2)cc(N2CCN(CCO)CC2)n1 [dasatinib]
Summary of the method: (§1)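 The values are log-two fold changes in thermal stability compared with solvent controls and come from duplicates. They were obtained by TMTpro 16plex LC-MS/MS, with channel sums equalised, on the supernatant after 21,000xg for 90 min. That supernatant came from crude K562 extract at 1 mg/mL protein treated with 10 μM compound for 30 min, heated for 3 min across 48°C-58°C, pooled and brought to 0.5% NP-40 at 4°C.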

[1] = compound: Cn1cc(-c2ccc3c(c2)CCN3C(=O)Cc2cccc(C(F)(F)F)c2)c2c(N)ncnc21
Summary of the method: as §1

[2] = compound: NC1(c2ccc(-c3nc4ccn5c(=O)[nH]nc5c4cc3-c3ccccc3)cc2)CCC1
Summary of the method: as §1

[3] = compound: NCC(=O)Nc1ccc(-n2nc(C(F)(F)F)cc2-c2ccc3c(ccc4ccccc43)c2)cc1
Summary of the method: as §1

vorinostat = compound: O=C(CCCCCCC(=O)Nc1ccccc1)NO [vorinostat]
Summary of the method: as §1

silmitasertib = compound: O=C(O)c1ccc2c(c1)nc(Nc1cccc(Cl)c1)c1ccncc12 [silmitasertib]
Summary of the method: as §1

entospletinib = compound: c1cn2cc(-c3ccc4cn[nH]c4c3)nc(Nc3ccc(N4CCOCC4)cc3)c2n1 [entospletinib]
Summary of the method: as §1

quisinostat = compound: Cn1cc(CNCC2CCN(c3ncc(C(=O)NO)cn3)CC2)c2ccccc21 [quisinostat]
Summary of the method: as §1

[4] = compound: NC(=O)Nc1cc(-c2cccc(F)c2)sc1C(=O)N[C@H]1CCCNC1
Summary of the method: as §1

[5] = compound: O=C1NC(=O)C(c2cnc3ccccn23)=C1c1cn2c3c(cc(F)cc13)CN(C(=O)N1CCCCC1)CC2
Summary of the method: as §1

[6] = compound: NC(=O)c1cnc(N[C@@H]2CCCC[C@@H]2N)nc1Nc1cccc(-n2nccn2)c1
Summary of the method: as §1

Measured: log2 fold change

YBEY (UniProt P58557)
inactive: dasatinib 0.067 | [1] -0.083 | [2] 0.044 | [3] 0.035 | vorinostat -0.136 | silmitasertib 0.063 | entospletinib 0.029

ZDHHC9 (UniProt Q9Y397)
inactive: quisinostat -0.118 | [4] -0.165 | [2] 0.103 | vorinostat 0.054 | silmitasertib 0.07 | [5] -0.295

ZBTB37 (UniProt Q5TC79)
inactive: quisinostat 0.087 | [4] -0.25 | [5] -0.147

ZBTB48 (UniProt P10074)
inactive: dasatinib -0.052 | [1] 0.004 | [3] -0.032

ZFAND3 (UniProt Q9H8U3)
inactive: dasatinib 0.022 | [1] 0.039 | quisinostat 0.115 | [4] -0.089 | [6] -0.132 | [3] -0.106 | [5] -0.306 | entospletinib -0.032

ZBTB44 (UniProt Q8NCP5)
inactive: quisinostat -0.035 | [4] 0.03 | [5] -0.098

ZBED5 (UniProt Q49AG3)
inactive: dasatinib -0.175 | [1] 0.459 | [2] -0.231 | vorinostat -0.072 | silmitasertib -0.009

ZFX isoform 3 (UniProt P17010)
inactive: dasatinib -0.07 | [1] -0.163 | quisinostat 0.225 | [4] -0.051 | [6] 0.019 | [5] 0.017

ZC3H3 (UniProt Q8IXZ2)
inactive: [6] -0.042

ZC3H12C isoform 2 (UniProt Q9C0D7)
inactive: dasatinib -0.21 | [1] 0.075 | quisinostat 0.052 | [4] 0.115 | [6] 0.054 | [2] 0.028 | vorinostat -0.368 | silmitasertib -0.035 | [5] 0.06

Quoted from the listing (2 entries):
ZBTB44 (UniProt Q8NCP5)
inactive: quisinostat -0.035 | [4] 0.03 | [5] -0.098

ZBED5 (UniProt Q49AG3)
inactive: dasatinib -0.175 | [1] 0.459 | [2] -0.231 | vorinostat -0.072 | silmitasertib -0.009

(list continues)

YIPF2 (UniProt Q9BWQ6)
inactive: quisinostat -0.013 | [4] -0.007 | [2] 0.085 | vorinostat 0.081 | silmitasertib 0.089 | [5] 0.048

ZBTB34 (UniProt Q8NCN2)
inactive: dasatinib -0.074 | [1] -0.074 | [6] -0.05

ZFP64 isoform 5 (UniProt Q9NTW7)
inactive: quisinostat 0.007 | [4] 0.014 | [6] -0.094 | [5] 0.034 | entospletinib 0.195

ZC4H2 (UniProt Q9NQZ6)
inactive: quisinostat -0.177 | [4] -0.163 | [5] 0.04

ZDHHC12 isoform 3 (UniProt Q96GR4)
inactive: quisinostat 0.037 | [4] -0.064 | [5] 0.032
